In PMC11749140:
Results are given in words; binding and its absence hold for the method and conditions named. Binding seen in cells or lysates may run through a third protein. Some binding calls cover weakened binding; strength is not graded here.

Amino acid sequences for entries named in this document (tags omitted).
UniProt P68373: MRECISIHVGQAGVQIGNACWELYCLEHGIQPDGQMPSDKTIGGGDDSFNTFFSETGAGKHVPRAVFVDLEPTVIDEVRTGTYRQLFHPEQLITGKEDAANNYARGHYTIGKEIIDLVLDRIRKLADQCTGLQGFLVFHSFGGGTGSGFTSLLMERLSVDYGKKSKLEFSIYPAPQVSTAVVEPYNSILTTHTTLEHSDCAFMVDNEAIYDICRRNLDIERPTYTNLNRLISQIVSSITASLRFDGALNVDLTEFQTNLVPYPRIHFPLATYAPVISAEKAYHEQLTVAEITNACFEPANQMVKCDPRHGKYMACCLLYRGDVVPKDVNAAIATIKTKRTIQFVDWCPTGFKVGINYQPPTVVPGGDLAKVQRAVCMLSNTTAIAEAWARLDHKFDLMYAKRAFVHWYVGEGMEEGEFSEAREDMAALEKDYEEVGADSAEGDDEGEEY

B1: Actl7a (mouse) (protein, UniProt Q9QY84 1-440)
chain: MSLDGVWAPQTANIGDGPAKKASDQASMQTQVLQTASLKDGPAKRAVWVRRDNAETEDPVKSTMSKDRPRLEVTKAVVVDLGTGFCKCGFAGLPKPTHKISTTVGKPYMETAKTGDNRKETFVGHELFNPDIHLKLVNPLRHGIIVDWDTVQDIWEYLFRQEMKIAPEEHAVLVSDPPLSPHTNREKYAEMLFETFNTPAMHIAYQSRLSMYSYGRTSGLVVEVGHGVSYVVPIYEGYPLPSITGRLDYAGSDLTTYLMNLMNNSGKHFSEDHLGIVEDIKTRCCFVALDPIEEKKIPAPEHEIHYTLPDGKEIRLGQERFLCSEMFFKPSLIKSMQLGLHTQTVSCLNKCDIALKRDLMGNILLCGGSTMLRGFPNRLQKELSSMCPNDTPQVNVLPERDTAVWTGGSILASLQGFQPLWVHRLEYEEHGPFFLYRRCF

Biological target: Iqcn-3×FLAG (mouse Iqcn, FLAG-tagged, from Iqcn-3×FLAG+/+ transgenic mice) (mouse)
Test: co-IP; IP with testicular tissue extracts and sperm from Iqcn-3×FLAG+/+ mice (lines 7# and 13#); FLAG-tagged Iqcn

binding, binds:
Actbl2 (mouse) (from UniProt Q8BFZ3 1-376)
Capzb (mouse) (from UniProt P47757 1-277)
Tuba1c (mouse) (from UniProt P68373 1-449)
B1
